Source: PubChem BioAssay AID330 (DTP/NCI, 2004)
The list does not hold the whole screen: it is rich in T/C values a quarter to a half above the control, in often repeated tests (any T/C) and in doses without a T/C. Other doses and runs of a compound stand elsewhere. T/C is the treated group as % of the vehicle group. Some doses have a count of surviving animals in place of a T/C: the source holds a T/C of zero for them, seemingly a mark for toxic or unscored doses. Some doses without a T/C left all or most animals alive at the check, yet need not have been tolerated: the source hardly ever lists a survival T/C far under the control, and the zero likely stands for such cases as well. Counts of survivors are from the toxicity check (mostly the fifth day) where no day follows; animals may have died later. Schedule codes are those of the source, read here as Q, the interval in days (D) or hours (H), X, the number of doses. Some entries were tested several times; the values are given in rising order. Where survival is the endpoint, the PubChem record calls one and a half times the control and up active, and a quarter to a half above the control has no call in these data; cut-offs in other NCI protocols can differ.

System: P388 leukemia ip, CD2F1 mice, survival T/C
Assay: NCI In Vivo Anticancer Drug Screen. Data for tumor model P388 Leukemia (intraperitoneal) in CD2F1 (CDF1) mice
Details: T/C endpoint: median survival time, higher T/C = longer survival
[1] = dose: 200.0 mg/kg/injection, schedule: Q01DX009 (ip), vehicle: saline with Tween-80
[2] = dose: 200.0 mg/kg/injection, schedule: Q01DX005 (ip), vehicle: Klucel (hydroxypropylcellulose) (HPC)
[3] = dose: 100.0 mg/kg/injection, schedule: Q01DX005 (ip), vehicle: Klucel (hydroxypropylcellulose) (HPC)
[4] = dose: 12.5 mg/kg/injection, schedule: Q01DX009 (ip), vehicle: saline
[5] = dose: 25.0 mg/kg/injection, schedule: Q01DX009 (ip), vehicle: saline
[6] = dose: 50.0 mg/kg/injection, schedule: Q01DX009 (ip), vehicle: saline
[7] = dose: 240.0 mg/kg/injection, schedule: Q01DX005 (ip), vehicle: saline with Tween-80
[8] = dose: 60.0 mg/kg/injection, schedule: Q01DX005 (ip), vehicle: saline with Tween-80
[9] = dose: 100.0 mg/kg/injection, schedule: Q01DX009 (ip), vehicle: saline
[10] = dose: 240.0 mg/kg/injection, schedule: Q01DX005 (ip), vehicle: Klucel (hydroxypropylcellulose) (HPC)

SMILES: CCOC(=O)c1ccc(N=C/C(Cl)=C(/Cl)C(=O)O)cc1
- survivor count (dose: 25.0 mg/kg/injection, schedule: Q01DX009 (ip), vehicle: Klucel (hydroxypropylcellulose) (HPC)): 5 of 6
- survivor count (dose: 50.0 mg/kg/injection, schedule: Q01DX009 (ip), vehicle: Klucel (hydroxypropylcellulose) (HPC)): 2 of 6
- survivor count (dose: 50.0 mg/kg/injection, schedule: Q01DX009 (ip), vehicle: other): 3 of 6
- survivor count (dose: 100.0 mg/kg/injection, schedule: Q01DX009 (ip), vehicle: other): 0 of 6
- survivor count (dose: 200.0 mg/kg/injection, schedule: Q01DX009 (ip), vehicle: other): 0 of 6

SMILES: O=C(O)c1ccccc1C(=O)O
- survivor count (dose: 50.0 mg/kg/injection, schedule: Q01DX009 (ip), vehicle: water): 6 of 6

SMILES: ClC(Cl)=C(Cl)C(Cl)=C(Cl)Cl
- survivor count (dose: 200.0 mg/kg/injection, schedule: Q01DX001 (ip), vehicle: saline): 3 of 6

SMILES: CCOC(=O)c1ccc(NN=NC)cc1
- T/C (dose: 25.0 mg/kg/injection, schedule: Q01DX009 (ip), vehicle: saline with Tween-80): 131 and 133 % of control
- survivor count [1]: 6 of 6

SMILES: CC(c1ccccc1)[n+]1ccccc1C1OCCO1 (centres undefined)
- survivor count (dose: 100.0 mg/kg/injection, schedule: Q04DX003 (ip), vehicle: saline): 0 of 6
- survivor count (dose: 200.0 mg/kg/injection, schedule: Q04DX003 (ip), vehicle: saline): 0 of 6
- survivor count (dose: 400.0 mg/kg/injection, schedule: Q04DX003 (ip), vehicle: saline): 0 of 6

SMILES: Cc1nn(C)cc1P(=O)(c1ccccc1)c1ccccc1
- survivor count [2]: 1 of 6

SMILES: CCOC(=O)c1ccc2c(c1)nc(-c1ccccn1)n2CCc1ccccn1
- survivor count (dose: 50.0 mg/kg/injection, schedule: Q01DX005 (ip), vehicle: Klucel (hydroxypropylcellulose) (HPC)): 6 of 6

SMILES: NC(Cc1cccc2ccccc12)C(=O)O (centres undefined)
- survivor count [3]: 1 of 5
- survivor count [2]: 0 of 5

SMILES: CCCCC1SC2=NCCCN2C1(O)c1ccc(Cl)cc1 (centres undefined)
- survivor count [1]: 0 of 6

SMILES: COC1/C=C/OC2(C)Oc3c(C)c(O)c4c(O)c(c(/C=N/N(C)C(C)C(O)c5ccccc5)c(O)c4c3C2=O)NC(=O)C(C)=C/C=C/C(C)C(O)C(C)C(O)C(C)C(OC(C)=O)C1C (centres undefined)
- survivor count [1]: 3 of 6

SMILES: C[C@]12CC[C@H](O)CC1=CC[C@@H]1[C@@H]2CC[C@]2(C)C(=O)CC[C@@H]12
- survivor count (dose: 400.0 mg/kg/injection, schedule: Q01DX005 (ip), vehicle: saline with Tween-80): 2 of 5

SMILES: NC(=S)N/N=C/c1ccc(OC(=O)COc2ccccc2)cn1
- survivor count [1]: 6 of 6
- survivor count (dose: 400.0 mg/kg/injection, schedule: Q01DX009 (ip), vehicle: saline with Tween-80): 6 of 6

SMILES: CS/C(=C1/C(=O)N(c2ccccc2)N=C1c1ccc(Br)cc1)N1CC1
- survivor count (dose: 400.0 mg/kg/injection, schedule: Q04DX003 (ip), vehicle: Klucel (hydroxypropylcellulose) (HPC)): 5 of 5

SMILES: CCC1CN1P(=O)(OCCC#N)N1CC1CC (centres undefined)
- survivor count [4]: 6 of 6
- survivor count [5]: 6 of 6
- survivor count [6]: 6 of 6

SMILES: CC(N)C(O)c1ccc(O)cc1 (centres undefined)
- survivor count (dose: 600.0 mg/kg/injection, schedule: Q01DX009 (ip), vehicle: saline): 2 of 6 and 3 of 6

SMILES: CC(C)(C)c1cc(C(C)(C)C)c2[n+]([O-])ssc1-2
- survivor count [7]: 0 of 6

SMILES: CC/C=c1/[nH]c(=O)/c(=C\c2ccc([N+](=O)[O-])cc2)[nH]c1=O
- survivor count (dose: 100.0 mg/kg/injection, schedule: Q01DX009 (ip), vehicle: Klucel (hydroxypropylcellulose) (HPC)): 6 of 6

SMILES: COc1ccc2nc3cc(Cl)ccc3c(NCCCNCCCCNCCCNc3c4ccc(Cl)cc4nc4ccc(OC)nc34)c2n1
- survivor count (dose: 3.75 mg/kg/injection, schedule: Q01DX005 (ip), vehicle: saline with Tween-80): 5 of 6
- survivor count (dose: 7.5 mg/kg/injection, schedule: Q01DX005 (ip), vehicle: saline with Tween-80): 1 of 6
- survivor count (dose: 15.0 mg/kg/injection, schedule: Q01DX005 (ip), vehicle: saline with Tween-80): 0 of 6
- survivor count [8]: 1 of 6
- survivor count (dose: 120.0 mg/kg/injection, schedule: Q01DX005 (ip), vehicle: saline with Tween-80): 0 of 6
- survivor count [7]: 0 of 6

SMILES: CCCCCCCCCCCCCCCC[N+]1([O-])CCCC1
- survivor count [9]: 6 of 6
- survivor count (dose: 200.0 mg/kg/injection, schedule: Q01DX009 (ip), vehicle: saline): 0 of 6

SMILES: COCCNCCN1CCN(CCCN2c3ccccc3Sc3ccc(C(F)(F)F)cc32)CC1
- T/C [4]: 140 % of control
- survivor count [4]: 5 of 6
- T/C [5]: 130 % of control
- survivor count [5]: 5 of 6
- survivor count [6]: 6 of 6
- survivor count [9]: 0 of 6

SMILES: N#C/C(=N\Nc1cccc(C(F)(F)F)c1)C(N)=O
- survivor count [2]: 0 of 5

SMILES: O=C1c2ccccc2CCC1[n+]1ccc2ccccc2c1 (centres undefined)
- survivor count [3]: 2 of 5
- survivor count [2]: 0 of 5

SMILES: COc1cccc2c(NCCCCCCCCNc3c4ccc([N+](=O)[O-])cc4nc4c(OC)cccc34)c3ccc([N+](=O)[O-])cc3nc12
- T/C (dose: 1.25 mg/kg/injection, schedule: Q01DX009 (ip), vehicle: other): 147 % of control
- T/C (dose: 2.5 mg/kg/injection, schedule: Q01DX009 (ip), vehicle: other): 142 % of control
- T/C (dose: 5.0 mg/kg/injection, schedule: Q01DX009 (ip), vehicle: other): 145 % of control
- T/C (dose: 20.0 mg/kg/injection, schedule: Q01DX009 (ip), vehicle: other): 147 % of control
- T/C (dose: 40.0 mg/kg/injection, schedule: Q01DX009 (ip), vehicle: other): 130 % of control

SMILES: CC1=Nc2cc(Cl)c(Cl)cc2N(C)/C1=C/C1=C(Cl)C(=O)c2ccccc2C1=O
- survivor count [1]: 1 of 6

SMILES: Cc1ccccc1CC(C)c1ccccc1 (centres undefined)
- survivor count [1]: 2 of 6

SMILES: CCn1c2ccccc2c2cc(N=Nc3ccc4c(c3)c3ccccc3n4CC)ccc21
- survivor count [1]: 4 of 6

SMILES: CCOC(=O)C1=C(C(=O)c2ccc(C)cc2)C(c2c(Cl)cccc2Cl)C(C(=O)c2ccc(C)cc2)=C(C(=O)OCC)N1
- survivor count [8]: 6 of 6

SMILES: CC(=O)/C=N/OC(=O)c1ccccc1
- survivor count (dose: 400.0 mg/kg/injection, schedule: Q04DX002 (ip), vehicle: saline with Tween-80): 1 of 6

SMILES: CCc1nc(N)nc(N)c1-c1ccc(N(C)Cc2ccccc2)c([N+](=O)[O-])c1
- T/C (dose: 60.0 mg/kg/injection, schedule: Q01DX005 (ip), vehicle: Klucel (hydroxypropylcellulose) (HPC)): 125 % of control
- T/C (dose: 120.0 mg/kg/injection, schedule: Q01DX005 (ip), vehicle: Klucel (hydroxypropylcellulose) (HPC)): 145 % of control
- T/C [10]: 145 % of control

SMILES: CN(C)C(=O)c1ccc(SC(=S)NCc2ccccc2)cc1
- survivor count [10]: 0 of 6

SMILES: CCOC(=O)NN(C(=O)OCC)C(C(C)=O)C(C)=NCCN=C(C)C(C(C)=O)N(NC(=O)OCC)C(=O)OCC.[Cu] (centres undefined)
- survivor count [3]: 0 of 5
- survivor count [2]: 0 of 5

SMILES: C=C(C)C(=O)OCC1CO1 (centres undefined)
- survivor count (dose: 400.0 mg/kg/injection, schedule: Q01DX009 (ip), vehicle: water): 0 of 6

SMILES: CC(=O)Oc1ccc(OC(C)=O)c(CBr)c1CBr
- survivor count (dose: 200.0 mg/kg/injection, schedule: Q04DX002 (ip), vehicle: Klucel (hydroxypropylcellulose) (HPC)): 6 of 6
- survivor count (dose: 400.0 mg/kg/injection, schedule: Q04DX002 (ip), vehicle: Klucel (hydroxypropylcellulose) (HPC)): 5 of 6

SMILES: CCCOC(=O)/C=C(\Cl)C(=O)OCCC
- survivor count (dose: 50.0 mg/kg/injection, schedule: Q01DX009 (ip), vehicle: saline with Tween-80): 3 of 6
- survivor count (dose: 100.0 mg/kg/injection, schedule: Q01DX009 (ip), vehicle: saline with Tween-80): 0 of 6
- survivor count [1]: 0 of 6

SMILES: O=C1C=C2OCOC2=CC1=O
- survivor count (dose: 35.0 mg/kg/injection, schedule: Q01DX005 (ip), vehicle: Klucel (hydroxypropylcellulose) (HPC)): 3 of 6
- survivor count (dose: 70.0 mg/kg/injection, schedule: Q01DX005 (ip), vehicle: Klucel (hydroxypropylcellulose) (HPC)): 0 of 6
